# Reference: PubChem BioAssay AID1347423 (Functional Genomics Laboratory (NCATS/FGL), 2020)
# Among all 52,000 sequences or so, about 210 (0.4%) were called active.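 How the source made its calls: active means gene whose silencing raises cell survival under the drug, median off-target-corrected z-score across its silencing RNAs 2 or more; inactive means the rest.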 The list shows a part of the results.
# Test: Resistance to Poly (ADP-Ribose) Polymerase inhibitor: Gene Identification via Genome-wide siRNA Screen
# Details: mouse BRCA2 R2336H ES cells, olaparib, CellTiter-Glo viability; hits give high values
# Summary of the method: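 Mouse BRCA2 R2336H ES cells were reverse-transfected with siRNA (20 nM final), treated at 48 h with 500 nM olaparib, and read by CellTiter-Glo after 72 h. Scores: MAD-based z per siRNA, median per gene, seed off-target correction.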
row,Sequence,z-score
1,GGGAGUCAGAGUCAUGUAUTT against Mmrn2,inactive: 0.77
2,GGAAUACAUAGCACACGGUTT against Apba2,inactive: -0.338
3,GCCACAACUGUCAACAUAGTT against Exosc8,inactive: -0.708
4,GGGCUAACCUAGGUGGACUTT against Dci,inactive: -0.599
5,GCACUGUCAUGAAAUAUUUTT against Mass1,inactive: 0.623
6,GCGGUUCGCUGUUUGUUUCTT against 2310061J03Rik,inactive: 0.667
7,CGUGGUCAGCGAGAGAGAATT against Gm110,inactive: -0.506
8,GGCUCUAAAAACAAAUGACTT against Asb4,inactive: 0.788
9,GGACCUUAUGGCUUUGUAGTT against Ier5,inactive: -1.83
10,CCAAACUUUUGUGGAACAGTT against Galnt9,inactive: 0.858
11,CCGCAUCUAUGCAGGGCAATT against Coq7,inactive: -2.06
12,GAAAAUCUUGACACUCCUGTT against Ifna9,inactive: 1.3
13,GGAAAACUCUACCUUAUUGTT against Kif22,inactive: 0.00536
14,GGAGAAGAACAGAACAUGATT against Igf2,inactive: -0.131
15,GGACACUGUAAGUGUCAACTT against 9130020G10Rik,inactive: -0.298
16,GGAAUAGUAGCUCUUACUATT against D3Ertd250e,inactive: 0.0487
17,GCAAAGCUACUGUUCACCATT against Agtr1b,inactive: 1.14
18,GCCUUUAAGCAUGAUCCUGTT against Nnp1,inactive: -0.766
19,CGCAGAGAAGGUCAUUAAATT against Il1f5,inactive: 0.825
20,GGAAGAGAUGGCCAUAUACTT against Abcb1b,inactive: -0.278
21,GCCUUUAACUCCUACGUAGTT against Plxna4,inactive: 1.78
22,CCUUGAAGCCUAGAAAUGATT against Zcchc11,inactive: -1.44
23,GGCUAUAGCAGCACAUUGGTT against Ylpm1,inactive: -1.08

# Some of the entries above in a different format:
row | Sequence | z-score
16 | GGAAUAGUAGCUCUUACUATT against D3Ertd250e | inactive: 0.0487
17 | GCAAAGCUACUGUUCACCATT against Agtr1b | inactive: 1.14
18 | GCCUUUAAGCAUGAUCCUGTT against Nnp1 | inactive: -0.766

# More entries:

row,Sequence,z-score
1,GGUACAGUGUCAUCAUGAATT against Olfr460,inactive: 1.54
2,GGAAGAAUGGUUAAAGGGATT against 4833420K19Rik,inactive: 1.68
3,CCUAGAAAUGAUUGUUGUUTT against 5830426I05Rik,inactive: -1.58
4,CGAGAUGACCUCCUUUAUATT against Ephb3,inactive: 0.578
5,CCUACAGAUAGGUAUGUAGTT against Exo1,inactive: 1.25
6,CCCUAUGCAAUAUAUAGACTT against 4930488E11Rik,inactive: 0.0434
7,CGUGUUGAAAAACUCACAATT against V1rc22,inactive: -0.586
8,GCAAUGUUUACGAAUGAGGTT against 2010309E21Rik,inactive: 0.573
9,GGGAAGAGCGCAUAGAUACTT against Clca2,inactive: 2.58
10,CCCUGUAGAAAUUCAAGCCTT against BC034664,inactive: -0.429
11,GGCAAGAAGAAGGAGAAGCTT against Atp4a,inactive: 0.741
12,GGCUUCAAGUCUGUUCAACTT against Slc35e4,inactive: -0.174
13,CGGAGGCUUUUACCAAGUCTT against Tirap,inactive: -0.395
14,CCUAAUAUGCCAUGGUUCATT against Eef1a2,inactive: -0.758
15,GGCCGUACCUAUGAUCUAUTT against Lrfn3,inactive: -0.595
16,GGGUUCUGGGAAGGUAUAUTT against Olfr705,inactive: -2.37
17,CCUUGGAAUCAAUGUCACGTT against Siah2,inactive: -0.815
18,GAGUGUCAGGUCCAAGUUATT against V1rg3,inactive: 0.0946
19,GGCGGAAAUUCCAAUGGUGTT against Fn1,inactive: 0.575
20,GGUGCUAAAGAUCUGAGAUTT against BC025446,inactive: -0.645
21,GGAGGAAGAAAUAAAUUACTT against 0610009A07Rik,inactive: 0.862
22,GGUUCCUCUUUUCCUGGUATT against Olfr1499,inactive: -0.422
23,GGAAGUCUAAAGAACAGGATT against Fbxo8,inactive: 1.03

row,Sequence,z-score
1,GCGAAGAAGAAGUCGCUCCTT against Clk2,inactive: 0.456
2,GGUAAAGUUGCUUAAUUAGTT against 1700060H10Rik,inactive: 0.884
3,GCCCAGUGUGCAAUUAAACTT against Uvrag1,inactive: -0.406
4,CCAAAGUUUUAUCAGUUUGTT against Gpr87,inactive: -0.469
5,GCCCUACAGCAGACUAGAATT against Vax2,inactive: -1.92
6,AGCAGUUGGCUUUUCUAACTT against Paqr9,inactive: 0.00097
7,GGUGUAGGGAAUUGUGAAUTT against Rpia,inactive: -1.02
8,GCCAGAAUCAGAUCUCUCGTT against Amigo,inactive: 0.818
9,GGUAACACUGUCCACCACUTT against Olfr348,inactive: 1.35
10,GGGAAUUUAUGCAUUAGCATT against Kif2a,inactive: 0.368
11,GGAUGUCAAUGAGGUUUUUTT against Mpp5,inactive: 0.2
12,GGCAAGGAGAAAGGAUUGUTT against Mgl1,inactive: 0.0694
13,GCUCAACCCAUUCUUUGAUTT against Ddc8,inactive: 0.369
14,GGAUAAAGUGAGGAUUCUATT against Pcdhga4,inactive: -0.296
15,GGCGAUUUACAAGCUGAAGTT against Guca1b,inactive: -0.186
16,GCUACGAAGAAGCAUGCCUTT against 9630044O09Rik,inactive: 1.85
17,GCCAUACUACAUCACAGAGTT against S100a15,inactive: 0.172
18,GGAAAAGGUUUUGUAGAAUTT against Pspc1,inactive: 0.741
19,CCUGCCUGACAUUCCUAUUTT against Zdhhc19,inactive: -0.933
20,GCAGUUAAAUCCCUUUCAUTT against 4930429M06Rik,inactive: 1.42
21,GGUCAUUGAGCUGAUGGACTT against Elovl1,inactive: 0.856
